The nature of the assay: IkB Signaling. The note with it: ABC-DLBCL IkBa-CBG/CBR dual luciferase ratio (green luciferase fused to IkBa over red control in OCI-Ly3 lymphoma cells), 4 h. The essentials:
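Luminescence ratio of IκBα-fused green versus native red beetle luciferase in OCI-Ly3 cells, 4 h post-doxycycline with compound; red signal alone, scaled from basal (0%) to zero light (-100%), flagged nonspecific or cytotoxic effects.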

[1] abbreviates: measured here: control luc red channel unless noted.

This is one part of the list. Further columns of the screen follow, without active or inactive calls. Most of these compounds were active or inconclusive in the main read-out, so they are no random draw. The note in brackets gives the kind of curve behind each potency; many fits are weak.

The values below come from PubChem BioAssay AID445 (National Center for Advancing Translational Sciences (NCATS), 2006).

With `COC(=O)c1c(Oc2ccc(OC)cc2)nnc(-c2ccccc2)c1-c1ccccc1`, under setting [1], the AC50 is 15.8 µM [falling, partial curve].
`CCOc1ccccc1CNC(=O)c1ccc(N2Cc3ccccc3Oc3ncccc32)s1`: under setting [1], the AC50 was 10 µM [falling, partial curve].
Consider `COc1ccc(CNC(=O)CCCn2nc(C)c3sc4ccccc4c3c2=O)cc1OC`, for which the AC50 under setting [1] is 10 µM [falling, partial curve].
Same read-out and setting: the result for `Cc1ccc(CNC(=O)c2cccn2-c2nnc(N3CCCC3)s2)cc1` reads 15.8 µM [falling, partial curve, poor fit].
The same measure, in the same setting: the result for `COc1cccc(Cn2c(C3CC3)nc3ccc(NC(=O)c4ccco4)cc3c2=O)c1` reads 3.16 µM [falling, partial curve].
On the same count and under the same terms, the value for `O=C(Cn1ncc2ccsc2c1=O)N1CCN(c2ccc(F)cc2)CC1` was 25.1 µM [falling, partial curve].
Turning to `CCC1CN(C(=O)Nc2cccc3c2CCCC3)c2cc(Cl)ccc2O1` (stereo unspecified), the AC50 under setting [1] was 31.6 µM [falling, single point].
Turning to `Cc1oc(-c2ccccc2Cl)nc1CS(=O)CC(=O)NCc1ccc(Cl)cc1` (stereo unspecified), the AC50 under setting [1] was 25.1 µM [falling, partial curve].
In the case of `O=C(Nc1ccc2c(c1)OCO2)c1ccc(Br)s1`, the AC50 under setting [1] was 6.31 µM [falling, partial curve].
Take `Cc1ccc(COc2ccc(-c3cc(C(F)(F)F)n4nc(C)cc4n3)cc2)cc1`: the AC50 under setting [1] is 0.251 µM [falling, full curve].
Same read-out and setting: the result for `O=S(=O)(Nc1nc2ccccc2nc1Nc1ccccc1Br)c1ccccc1` reads 25.1 µM [falling, single point].
The same measure, in the same setting: the value for `Fc1ccc(-c2ccc(CNCCSc3nnnn3-c3ccccc3)o2)cc1` was 31.6 µM [falling, single point]; that for `CN1CCc2nc(SCC(=O)Nc3ccc(F)cc3)c(C#N)cc2C1` was 10 µM [falling, partial curve].
In the case of `CC1CCc2c(sc(NC(=O)c3cc(-c4cccc(Cl)c4)on3)c2C(N)=O)C1` (stereo unspecified), the AC50 under setting [1] was 12.6 µM [falling, partial curve].
Regarding `Cc1ccc(NC(=O)Cc2coc3ccc(C(C)C)cc23)c(C)c1`, the AC50 under setting [1] is 31.6 µM [falling, partial curve].
Same read-out and setting: the result for `Cc1oc2c(cc(NS(=O)(=O)c3ccc(C(C)C)cc3)c3ccccc32)c1C(=O)O` reads 15.8 µM [falling, partial curve]; that for `c1ccc(-c2nc(CSc3nnnn3-c3ccccc3)cs2)cc1`, 31.6 µM [falling, single point]; that for `C=CCn1c(SCC(=O)Nc2ccccc2)nnc1-c1cccc(S(=O)(=O)N2CCOCC2)c1`, 2 µM [falling, partial curve].
Still for that read-out and setting: the value for `CCN(CC)C(=O)c1sc2c(c1C)c(=O)n(-c1ccc(Cl)c(Cl)c1)c(=O)n2Cc1cc(=O)n2ccccc2n1` was 2.51 µM [rising, partial curve].
On the same count and under the same terms, the value for `Cc1ccc(S(=O)(=O)c2[nH]c(-c3ccccc3)nc2SCC(N)=O)cc1` was 7.94 µM [falling, partial curve].
With `CCOC(=O)N1CCN(C(=O)c2c(C)nn(-c3cccc(C)c3)c2-n2cccc2)CC1`, the AC50 runs as follows: (measured here: IkB-luc green channel) 0.0398 µM [rising, full curve, poor fit]; (measured here: control luc red channel) 1.26 µM [rising, partial curve].
Take `CCc1ccc2[nH]c(=O)c(CN(Cc3ccccc3)Cc3nnnn3Cc3ccco3)cc2c1`: the AC50 under setting [1] was 6.31 µM [falling, partial curve].
Turning to `O=C(NCc1ccc2c(c1)CCN2C(=O)c1ccccc1)c1ccccc1`, the AC50 under setting [1] is 39.8 µM [falling, single point].
Same read-out and setting: the result for `COc1ccc(CNC(=O)C2=C(C)C(=O)OC23CCCCC3)cc1` reads 31.6 µM [falling, single point].
Same read-out and setting: the result for `CCCSc1nnc2c(n1)OC(c1ccc(Br)s1)Nc1ccccc1-2` (stereo unspecified) reads 0.126 µM [falling, full curve, poor fit].
On to `COCCOC(=O)C1=C(C)OC(N)=C(C#N)C1c1ccc2c(c1)OCO2` (stereo unspecified), for which the AC50 under setting [1] is 25.1 µM [rising, partial curve] [measured here: IkB-luc green channel].
Same read-out and setting: the result for `COc1ccc(-c2onc(C)c2C)cc1S(=O)(=O)NCC(C)c1ccccc1` (stereo unspecified) reads 31.6 µM [falling, partial curve].
Still for that read-out and setting: the result for `CCOC(=O)N1CCN(C(=O)CSCC(=O)Nc2nc(-c3ccc4c(c3)OCO4)cs2)CC1` reads 15.8 µM [falling, partial curve]; that for `COc1cccc(N2CCN(C(=O)CCCn3c(=O)[nH]c4ccc(Br)cc4c3=O)CC2)c1`, 20 µM [falling, partial curve].
For `Cc1ccc(Nc2c(-c3ccc(Cl)cc3)nc3sccn23)c(C)c1`, the AC50 under setting [1] is 25.1 µM [falling, single point].
On the same count and under the same terms, the result for `CC(C)Oc1cccc(C(=O)Nc2ccc3oc(-c4cccc(Cl)c4)nc3c2)c1` reads 10 µM [falling, partial curve].
On to `COc1ccc(OC)c(CNS(=O)(=O)c2ccc3[nH]c4c(c3c2)CCCCC4)c1`, for which the AC50 under setting [1] is 25.1 µM [falling, partial curve].
Consider `CC1(C)CCC(C)(C)c2cc(C(=O)Nc3ccc(C(=O)O)cc3)ccc21`, for which the AC50 under setting [1] is 39.8 µM [falling, single point].
As to `CCn1cnc2c1c(=O)n(CC(=O)N1CCc3ccccc31)c(=O)n2Cc1ccccc1`, the half-maximal activity concentration (AC50) under setting [1] was 20 µM [falling, partial curve].
Same read-out and setting: the value for `Cc1ccc(NC(=O)CSc2nccn2Cc2ccco2)cc1Cl` was 7.94 µM [falling, partial curve].
For the compound `COc1cccc(NC(=O)CSCc2cc(=O)c3ccc(C)c(C)c3[nH]2)c1`, the AC50 under setting [1] is 39.8 µM [falling, single point].
On to `CCOc1ccccc1O[C@@H](c1ccccc1)[C@@H]1CNCCO1`, for which the concentration at half-maximal activity (AC50) under setting [1] is 39.8 µM [falling, single point].
Regarding `O=S(=O)(NC1CCc2ccccc21)c1ccc(S(=O)(=O)N2CCCC2)cc1` (stereo unspecified), under setting [1], the AC50 was 20 µM [falling, partial curve].
`CCCCCOC(=O)c1ccc(NC(=O)c2ccco2)cc1`: the AC50 under setting [1] is 25.1 µM [falling, single point].
The same measure, in the same setting: the value for `Cc1nn2c(=O)cc(COC(=O)c3cccc(NC(=O)COc4ccccc4Cl)c3)nc2s1` was 10 µM [falling, partial curve].
